In PMC6827371:
These are yes or no findings as the source states them, for the method shown. In cells and extracts the contact can be indirect. Some binding calls cover weakened binding; strength is not graded here. Sequences can lack the tags named with a protein.

Sequences of proteins named here, by UniProt entry; tags and fusion partners are left off.
UniProt P21187: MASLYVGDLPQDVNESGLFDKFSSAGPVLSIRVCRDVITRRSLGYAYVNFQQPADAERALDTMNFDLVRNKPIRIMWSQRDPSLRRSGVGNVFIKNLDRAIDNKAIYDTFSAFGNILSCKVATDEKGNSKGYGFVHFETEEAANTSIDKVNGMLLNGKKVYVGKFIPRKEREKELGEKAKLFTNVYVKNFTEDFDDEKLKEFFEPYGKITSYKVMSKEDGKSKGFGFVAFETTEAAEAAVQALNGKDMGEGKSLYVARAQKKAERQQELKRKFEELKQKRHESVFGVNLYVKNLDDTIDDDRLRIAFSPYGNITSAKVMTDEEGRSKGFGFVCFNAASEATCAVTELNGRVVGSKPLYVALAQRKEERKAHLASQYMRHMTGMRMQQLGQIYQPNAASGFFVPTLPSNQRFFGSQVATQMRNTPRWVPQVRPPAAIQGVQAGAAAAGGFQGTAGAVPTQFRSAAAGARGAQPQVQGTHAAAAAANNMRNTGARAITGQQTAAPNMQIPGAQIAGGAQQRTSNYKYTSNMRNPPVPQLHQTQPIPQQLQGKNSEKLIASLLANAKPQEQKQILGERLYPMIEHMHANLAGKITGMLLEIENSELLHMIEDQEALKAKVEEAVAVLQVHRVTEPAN
UniProt Q9VHP0: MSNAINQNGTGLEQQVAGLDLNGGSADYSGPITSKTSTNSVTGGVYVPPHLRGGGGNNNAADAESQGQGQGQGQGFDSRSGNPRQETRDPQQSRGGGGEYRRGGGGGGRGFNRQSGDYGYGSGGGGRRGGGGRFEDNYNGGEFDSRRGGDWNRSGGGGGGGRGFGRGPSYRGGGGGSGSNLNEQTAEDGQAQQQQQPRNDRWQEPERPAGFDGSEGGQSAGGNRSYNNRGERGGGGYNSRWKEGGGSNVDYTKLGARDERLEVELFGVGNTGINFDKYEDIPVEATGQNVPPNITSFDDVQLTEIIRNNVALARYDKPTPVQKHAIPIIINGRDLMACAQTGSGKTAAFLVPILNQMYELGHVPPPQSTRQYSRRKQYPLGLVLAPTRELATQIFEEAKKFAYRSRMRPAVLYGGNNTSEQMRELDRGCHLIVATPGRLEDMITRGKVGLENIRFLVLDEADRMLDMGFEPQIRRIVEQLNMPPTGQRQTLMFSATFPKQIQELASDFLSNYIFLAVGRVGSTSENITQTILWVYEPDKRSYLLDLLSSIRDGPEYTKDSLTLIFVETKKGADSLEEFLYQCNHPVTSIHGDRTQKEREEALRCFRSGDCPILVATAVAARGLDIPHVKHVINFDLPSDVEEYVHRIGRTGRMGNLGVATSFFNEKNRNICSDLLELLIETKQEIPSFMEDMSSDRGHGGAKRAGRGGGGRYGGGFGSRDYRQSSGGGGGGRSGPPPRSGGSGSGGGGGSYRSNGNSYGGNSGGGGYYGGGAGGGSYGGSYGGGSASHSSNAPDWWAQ
UniProt P19109: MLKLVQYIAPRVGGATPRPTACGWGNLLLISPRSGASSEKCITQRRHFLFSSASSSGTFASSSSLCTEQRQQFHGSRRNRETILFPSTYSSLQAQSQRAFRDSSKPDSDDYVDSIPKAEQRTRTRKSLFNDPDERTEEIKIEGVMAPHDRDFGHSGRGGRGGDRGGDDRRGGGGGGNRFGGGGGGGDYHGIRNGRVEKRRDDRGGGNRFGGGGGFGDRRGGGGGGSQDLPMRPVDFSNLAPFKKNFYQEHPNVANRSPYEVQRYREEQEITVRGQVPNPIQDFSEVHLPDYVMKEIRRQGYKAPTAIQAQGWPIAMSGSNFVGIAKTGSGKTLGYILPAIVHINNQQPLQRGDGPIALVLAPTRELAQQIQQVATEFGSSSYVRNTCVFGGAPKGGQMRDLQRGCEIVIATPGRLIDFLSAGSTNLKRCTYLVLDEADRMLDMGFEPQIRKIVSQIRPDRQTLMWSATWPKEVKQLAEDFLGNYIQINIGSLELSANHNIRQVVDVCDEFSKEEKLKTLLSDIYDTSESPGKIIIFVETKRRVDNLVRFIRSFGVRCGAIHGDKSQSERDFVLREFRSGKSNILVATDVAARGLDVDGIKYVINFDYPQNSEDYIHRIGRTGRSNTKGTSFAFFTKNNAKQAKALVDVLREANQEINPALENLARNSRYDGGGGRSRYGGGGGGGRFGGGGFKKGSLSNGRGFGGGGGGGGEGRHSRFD

T1: GFP-Vas^DQAD (Drosophila melanogaster) (UniProt P09052)
T1 sequence: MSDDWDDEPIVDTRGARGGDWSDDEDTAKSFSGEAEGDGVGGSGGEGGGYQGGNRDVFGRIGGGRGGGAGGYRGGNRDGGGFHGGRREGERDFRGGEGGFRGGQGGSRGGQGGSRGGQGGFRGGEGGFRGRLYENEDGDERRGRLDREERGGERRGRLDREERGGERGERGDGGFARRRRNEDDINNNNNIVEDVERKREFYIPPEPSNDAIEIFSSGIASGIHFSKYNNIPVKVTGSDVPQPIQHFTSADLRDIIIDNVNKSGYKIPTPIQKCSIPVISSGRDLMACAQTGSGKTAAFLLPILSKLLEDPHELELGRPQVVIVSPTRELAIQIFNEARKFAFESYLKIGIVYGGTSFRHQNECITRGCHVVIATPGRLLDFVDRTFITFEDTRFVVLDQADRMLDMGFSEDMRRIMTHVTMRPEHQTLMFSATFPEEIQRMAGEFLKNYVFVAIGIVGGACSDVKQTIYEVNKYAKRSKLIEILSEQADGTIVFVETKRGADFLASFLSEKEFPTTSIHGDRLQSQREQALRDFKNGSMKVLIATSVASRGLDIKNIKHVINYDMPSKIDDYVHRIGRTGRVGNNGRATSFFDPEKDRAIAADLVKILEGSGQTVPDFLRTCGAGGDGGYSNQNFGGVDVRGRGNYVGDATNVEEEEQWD

B1: Nop60B (protein, UniProt O44081 1-508)
chain: MADVEVRKEKKKKKIKEEPLDGDDIGTLQKQGNFQIKPSSKIAELDTSQWPLLLKNFDKLNIRSNHYTPLAHGSSPLNRDIKEYMKTGFINLDKPSNPSSHEVVAWIKKILKVEKTGHSGTLDPKVTGCLIVCIDRATRLVKSQQSAGKEYVAIFKLHGAVESVAKVRQGLEKLRGALFQRPPLISAVKRQLRVRTVYDSKLLDYDETRNMGVFWVSCEAGSYIRTMCVHLGLVLGVGGQMLELRRVRSGIQSERDGMVTMHDVLDAMWLYENHKDESMLRRVIKPLEGLLVNHKRIIMKDSSVNAVCYGAKITLPGVLRYEDGIEIDQEIVICTTKGEAICLAIALMTTATMASCDHGVVAKIKRVIMERDTYPRKWGLGPKASAKKALIAAGKLDKFGRPNENTPKEWLTGYVDYNAKKPAAQEVSPTNGSSEPSKRKLSTSSVEETAAAAVSEETPSKDKKKKKKKHKGDEEAPEAAEEEAEPVEKEKKKKKKKDKDRDRDEAQE
B2: Armi (protein, UniProt Q6J5K9 1-1188)
chain: MFTYVSKFFTNPDRNREDILESLDRENSFLDQKLMEEKMDQQLKANPNEINGVLSNKIAELTHGLSEMDVSKESSCTARKGVITSLDGDRGVIDKDVLFETKVAEDIILDLHVGCVVEYLTFTTGEAMRVVKVKSILEHSWEDTSQKEIEKAVDNLKNEKPTFFNTETRSVLGLISQRLASSIDVETEYGQLTVELDNIEMNFIPTNGDRVRLECNIQLDDGFVDKQGEILEVTKLFPTRIQEGEKCIVERVYVHMVVLGPETYILKTDLPTGTDLHLGDIVLADLIECQYSKFTRRAIKITPLEKNFGATKLTQQSSMGSSGSGKAVTVTGVNRFITAELWQKESVSLKLTNNLNRTLRLESITVCNDSESQLSVVSPLESKEISSGSEITVTFEIHTQFLGEAIEKYVLNFDLLKVRRVFTVIVCKTKEEVAEAEKRMIAAEALMAPGRNSQERSRFYANQVWCNKVDVIPGQQIVTKRRFVALRLGCFEVPKELRQICLTSERRQEMIKAIEQHYSFLTEPLSIKTYMHRFRLLLHLEEIECFVNFRNYDRDRAHFLRDGEFLTLQIENLAERRPSLVIGDTLRVINPWSDPDSQTTKSYEGIIHKVLFDRILLKFHSSFQEKYNGEDYRLEFYFSRYSFRKQHHAISKIVGVMGEDFLFPSKVTKRENPQLDVYMKDDDMYLYDSKLEWYNQSLNSIQKRAVFNILRGEAENIPYVLFGPPGSGKTMTLIETLLQLVRNLPGARILVGTPSNSSADLVTKRLIDSKALLQGDFIRLVSYNQVEKDLIPPEIMSYCATSDVGAVGSCEDKMMVTESGLKLRCQAKFIGTHRITISTCTTLGNFLQLGFPAGHFTHVLFDEAGQCTEPETMVPIVMLTKKRSQVVLSGDPRQLQSIVTSRIASKMGFSISFLERLLERSPYRKDLQRFPESSGYNPLVLTKLLYNYRALPSIMSIYSRLFYDDELIPVLSEKDSRESRLLSKLRCVFESEKDIPQAHGTFFYGIIGENRQNNDSPSWFNPQEVREVFLMTIALYRANVTADQIGIITPYQKQVKMLRSMFIGTDVVMPKIGSVEEFQGQERDIILISTVRSSEEILRMDARFSLGFVRCSKRLNVAVSRARAMMIIFGNPHLLAVDECWRQLILFCVKNNAYFGCDLPQMVINQKDEVPVCLETFVPSLNTTDDLN

biological target: T1, GFP-Vas^DQAD (Drosophila melanogaster); assay: co-IP; GFP-trap immunoprecipitation of GFP and GFP-Vas^DQAD from 30 mg ovarian protein lysate, as for the proteomic experiment; co-immunoprecipitated proteins detected by Western blotting

binding, binds:
PABP (from UniProt P21187 1-634)
Bel (from UniProt Q9VHP0 1-798)
Rm62 (from UniProt P19109 1-719)
B1
B2
